{"source": "PubChem BioAssay AID264", "about": "(DTP/NCI, 2004)", "test_system": "nude mice, LX-1 lung xenograft intrarenal, tumor weight T/C", "assay": "NCI In Vivo Anticancer Drug Screen. Data for tumor model Human Lung LX-1 Xenograft (intrarenal inoculation) in NU/NU Swiss (nude) mice", "conditions": "T/C endpoint: mean tumor weight change, higher T/C = larger tumour; for T/C: evaluated on day 11", "outline": "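Tumor-bearing mice receive test compound or vehicle; tumor size is then measured in each group. The treated value is divided by the vehicle value to give T/C.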", "key": {"[1]": {"conditions": "dose: 400.0 mg/kg/injection, schedule: Q04DX003 (sc), vehicle: saline"}, "[2]": {"conditions": "dose: 2400.0 mg/kg/injection, schedule: Q04DX003 (sc), vehicle: saline with Tween-80"}, "[3]": {"conditions": "dose: 50.0 mg/kg/injection, schedule: Q01DX010 (sc), vehicle: saline"}, "[4]": {"conditions": "dose: 300.0 mg/kg/injection, schedule: Q04DX003 (sc), vehicle: saline with Tween-80"}, "[5]": {"conditions": "dose: 4.0 mg/kg/injection, schedule: Q01DX010 (sc), vehicle: saline"}, "[6]": {"conditions": "dose: 8.0 mg/kg/injection, schedule: Q01DX010 (sc), vehicle: saline"}}, "note": "The list is a part of this screen's results and no random one: it is rich in T/C values a quarter to a half above the control, in often repeated tests (any T/C) and in doses without a T/C. Other doses and runs of a compound stand elsewhere. T/C gives the treated animals as a percentage of the vehicle group. Schedule codes are those of the source, read here as Q, the interval in days (D) or hours (H), X, the number of doses. Some values lie below zero, which means that the treated tumours became smaller. Some doses were run more than once; the results are listed from low to high. Some T/C values carry the count of animals alive at the toxicity check (mostly the fifth day); where none is given, no animal had died by that day. Some doses have a count of surviving animals in place of a T/C: the source files T/C as zero there, which appears to mark a toxic dose or a test without result, not a measured value. Survivors were counted at the toxicity check, usually on the fifth day, unless a day is given; later deaths do not show."}
{"smiles": "S=c1nc[nH]c2nc[nH]c12", "values": [{"measurement": "survivor count", "setting": "dose: 25.0 mg/kg/injection, schedule: Q01DX010 (sc), vehicle: Klucel (hydroxypropylcellulose) (HPC)", "value": "1 of 3 on day 11"}, {"measurement": "survivor count", "setting": "dose: 50.0 mg/kg/injection, schedule: Q01DX010 (sc), vehicle: Klucel (hydroxypropylcellulose) (HPC)", "value": "0 of 3 on day 11"}, {"measurement": "survivor count", "setting": "dose: 100.0 mg/kg/injection, schedule: Q01DX010 (sc), vehicle: Klucel (hydroxypropylcellulose) (HPC)", "value": "0 of 3 on day 11"}]}
{"smiles": "O=C(O)c1ccc(C(=O)O)c(C(=O)O)c1.[NH-]C1CCCCC1[NH-].[Pt+2]", "values": [{"measurement": "survivor count", "setting": "dose: 12.5 mg/kg/injection, schedule: Q01DX010 (sc), vehicle: sodium bicarbonate", "value": "0 of 6 on day 11"}, {"measurement": "survivor count", "setting": "dose: 25.0 mg/kg/injection, schedule: Q01DX010 (sc), vehicle: sodium bicarbonate", "value": "0 of 6 on day 11"}]}
{"smiles": "CCC1=C[C@H]2CN(CCc3c([nH]c4ccccc34)[C@@](C(=O)OC)(c3cc4c(cc3OC)N(C)[C@H]3[C@@](O)(C(=O)NC)[C@H](OC(C)=O)[C@]5(CC)C=CCN6CC[C@]43[C@@H]65)C2)C1", "values": [{"measurement": "survivor count", "setting": "dose: 1.0 mg/kg/injection, schedule: Q04DX003 (sc), vehicle: water", "value": "3 of 6 on day 11"}, {"measurement": "survivor count", "setting": "dose: 8.0 mg/kg/injection, schedule: Q04DX003 (sc), vehicle: water", "value": "3 of 6 on day 11"}]}
{"smiles": "CC(C)[NH-].CC(C)[NH-].[Cl][Pt+2][Cl]", "values": [{"measurement": "survivor count", "setting": "dose: 200.0 mg/kg/injection, schedule: Q01DX010 (sc), vehicle: dextrose", "value": "0 of 3 on day 11"}]}
{"smiles": "NC(=O)c1ccc[n+](Cc2c(Cl)cccc2Cl)c1", "values": [{"measurement": "survivor count", "setting": "[1]", "value": "0 of 6 on day 11"}]}
{"smiles": "Cc1nnc2ncccn12", "values": [{"measurement": "T/C", "setting": "[1]", "value": "139 % of control"}, {"measurement": "survivor count", "setting": "dose: 800.0 mg/kg/injection, schedule: Q04DX003 (sc), vehicle: saline", "value": "0 of 6 on day 11"}]}
{"smiles": "CSc1ccc2c(c1)C(N1CCN(C)CC1)Cc1ccccc1S2", "note": "(stereo not given)", "values": [{"measurement": "T/C", "setting": "dose: 12.5 mg/kg/injection, schedule: Q04DX003 (sc), vehicle: saline with Tween-80", "value": "140 % of control"}, {"measurement": "survivor count", "setting": "dose: 200.0 mg/kg/injection, schedule: Q04DX003 (sc), vehicle: saline with Tween-80", "value": "1 of 6 on day 11"}]}
{"smiles": "C(CSC1=NCCN1)CSC1=NCCN1", "values": [{"measurement": "survivor count", "setting": "dose: 200.0 mg/kg/injection, schedule: Q01DX010 (sc), vehicle: saline", "value": "0 of 3 on day 11"}, {"measurement": "survivor count", "setting": "dose: 400.0 mg/kg/injection, schedule: Q01DX010 (sc), vehicle: saline", "value": "0 of 3 on day 11"}]}
{"smiles": "C[n+]1c(/C=N/NC(N)=S)ccc2ccccc21", "values": [{"measurement": "survivor count", "setting": "[2]", "value": "0 of 6 on day 11"}]}
{"smiles": "C(C#CCN1CCOCC1)#CCN1CCOCC1", "values": [{"measurement": "survivor count", "setting": "dose: 2400.0 mg/kg/injection, schedule: Q04DX003 (sc), vehicle: Klucel (hydroxypropylcellulose) (HPC)", "value": "2 of 6 on day 11"}]}
{"smiles": "CCC1CC2CN(CCc3c([nH]c4ccccc34)C(C(=O)OC)(c3cc4c(cc3OC)N(C)C3C(O)(C(=O)OC)C(OC(C)=O)C5(CC)C=CCN6CCC43C65)C2)C1", "note": "(stereo not given)", "values": [{"measurement": "survivor count", "setting": "dose: 8.0 mg/kg/injection, schedule: Q04DX003 (sc), vehicle: suspension in saline", "value": "0 of 6 on day 11"}, {"measurement": "survivor count", "setting": "dose: 16.0 mg/kg/injection, schedule: Q04DX003 (sc), vehicle: suspension in saline", "value": "0 of 6 on day 11"}, {"measurement": "survivor count", "setting": "dose: 32.0 mg/kg/injection, schedule: Q04DX003 (sc), vehicle: suspension in saline", "value": "0 of 6 on day 11"}]}
{"smiles": "Oc1c(Cl)cc(Cl)cc1C1N2CCCCC2C2c3cccn3-c3ccccc3N21", "note": "(stereo not given)", "values": [{"measurement": "T/C", "setting": "dose: 600.0 mg/kg/injection, schedule: Q04DX003 (sc), vehicle: Klucel (hydroxypropylcellulose) (HPC)", "value": "140 % of control"}]}
{"smiles": "N=C(N)SCc1cccc2c(=O)cc(-c3ccccc3)oc12", "values": [{"measurement": "survivor count", "setting": "dose: 2400.0 mg/kg/injection, schedule: Q04DX003 (sc), vehicle: suspension in saline", "value": "3 of 6 on day 11"}]}
{"smiles": "CCCC(=O)O", "values": [{"measurement": "T/C", "setting": "[3]", "value": "139 % of control"}]}
{"smiles": "Clc1ccc2nnnn2n1", "values": [{"measurement": "survivor count", "setting": "dose: 800.0 mg/kg/injection, schedule: Q04DX003 (sc), vehicle: saline with Tween-80", "value": "1 of 6 on day 11"}, {"measurement": "survivor count", "setting": "dose: 1600.0 mg/kg/injection, schedule: Q04DX003 (sc), vehicle: saline with Tween-80", "value": "0 of 6 on day 11"}]}
{"smiles": "Nc1ncnc2c1ccn2C1OC(CO)C(O)C1O", "note": "(stereo not given)", "values": [{"measurement": "survivor count", "setting": "dose: 8.0 mg/kg/injection, schedule: Q01DX010 (sc), vehicle: Klucel (hydroxypropylcellulose) (HPC)", "value": "0 of 3 on day 11"}]}
{"smiles": "CC1CN1C(=O)NCCCCCCNC(=O)N1CC1C", "note": "(stereo not given)", "values": [{"measurement": "survivor count", "setting": "dose: 80.0 mg/kg/injection, schedule: Q04DX003 (sc), vehicle: Klucel (hydroxypropylcellulose) (HPC)", "value": "0 of 6 on day 11 and 3 of 6 on day 11"}, {"measurement": "survivor count", "setting": "dose: 160.0 mg/kg/injection, schedule: Q04DX003 (sc), vehicle: Klucel (hydroxypropylcellulose) (HPC)", "value": "0 of 6 on day 11"}]}
{"smiles": "O=C(Nc1ccc(C2=NCCN2)cc1)c1ccc(C(=O)Nc2ccc(C3=NCCN3)cc2)c(Cl)c1", "values": [{"measurement": "survivor count", "setting": "dose: 100.0 mg/kg/injection, schedule: Q01DX010 (sc), vehicle: water", "value": "0 of 3 on day 11"}]}
{"smiles": "O=C(O)CCCc1ccc(N(CCCl)CCCl)cc1", "values": [{"measurement": "survivor count", "setting": "dose: 16.0 mg/kg/injection, schedule: Q01DX010 (sc), vehicle: saline with Tween-80", "value": "1 of 3 on day 11"}, {"measurement": "survivor count", "setting": "dose: 32.0 mg/kg/injection, schedule: Q01DX010 (sc), vehicle: saline with Tween-80", "value": "0 of 3 on day 11"}]}
{"smiles": "C1CN(P2(N3CC3)=NP(N3CC3)(N3CC3)=NP(N3CC3)(N3CC3)=N2)CCO1", "note": "(stereo not given)", "values": [{"measurement": "T/C", "setting": "dose: 12.5 mg/kg/injection, schedule: Q04DX003 (sc), vehicle: saline", "value": "142 % of control"}, {"measurement": "survivor count", "setting": "[3]", "value": "0 of 6 on day 11"}, {"measurement": "survivor count", "setting": "dose: 100.0 mg/kg/injection, schedule: Q01DX010 (sc), vehicle: saline", "value": "0 of 6 on day 11"}, {"measurement": "survivor count", "setting": "dose: 100.0 mg/kg/injection, schedule: Q04DX003 (sc), vehicle: saline", "value": "2 of 6 on day 11"}, {"measurement": "survivor count", "setting": "dose: 200.0 mg/kg/injection, schedule: Q04DX003 (sc), vehicle: saline", "value": "0 of 6 on day 11"}]}
{"smiles": "OC1CCCC2CCCNC12", "note": "(stereo not given)", "values": [{"measurement": "survivor count", "setting": "[4]", "value": "1 of 6 on day 11"}]}
{"smiles": "O=c1ssc(=Nc2ccccc2)n1-c1ccccc1", "values": [{"measurement": "T/C", "setting": "dose: 200.0 mg/kg/injection, schedule: Q01DX010 (sc), vehicle: Klucel (hydroxypropylcellulose) (HPC)", "value": "132 % of control [2 of 2 alive on day 11]"}, {"measurement": "survivor count", "setting": "dose: 800.0 mg/kg/injection, schedule: Q01DX010 (sc), vehicle: Klucel (hydroxypropylcellulose) (HPC)", "value": "0 of 3 on day 11"}]}
{"smiles": "O=[n+]1c2ccccc2n([O-])c2ccccc21.[Cl][Ni][Cl]", "values": [{"measurement": "T/C", "setting": "dose: 37.5 mg/kg/injection, schedule: Q04DX003 (sc), vehicle: saline with Tween-80", "value": "129 [5 of 6 alive on day 11] and 136 % of control [5 of 6 alive on day 11]"}, {"measurement": "survivor count", "setting": "dose: 150.0 mg/kg/injection, schedule: Q04DX003 (sc), vehicle: saline with Tween-80", "value": "3 of 6 on day 11"}, {"measurement": "survivor count", "setting": "[4]", "value": "0 of 6 on day 11"}]}
{"smiles": "O=CC(=O)c1ccc(O)cc1", "values": [{"measurement": "survivor count", "setting": "dose: 1200.0 mg/kg/injection, schedule: Q04DX003 (sc), vehicle: saline", "value": "0 of 6 on day 11"}]}
{"smiles": "C=C(C)C(=NC(C)(C)C)Nc1ccccc1", "values": [{"measurement": "T/C", "setting": "dose: 100.0 mg/kg/injection, schedule: Q04DX003 (sc), vehicle: saline with Tween-80", "value": "137 % of control"}, {"measurement": "survivor count", "setting": "dose: 400.0 mg/kg/injection, schedule: Q04DX003 (sc), vehicle: saline with Tween-80", "value": "3 of 5 on day 11"}]}
{"smiles": "N[C@@H](Cc1ccc(N(CCCl)CCCl)cc1)C(=O)O", "values": [{"measurement": "T/C", "setting": "dose: 1.0 mg/kg/injection, schedule: Q01DX010 (sc), vehicle: saline", "value": "131 % of control"}, {"measurement": "T/C", "setting": "dose: 2.0 mg/kg/injection, schedule: Q01DX010 (sc), vehicle: saline", "value": "10 [2 of 3 alive on day 11], 13, 53, 111 % of control"}, {"measurement": "T/C", "setting": "[5]", "value": "25, 40 [2 of 3 alive on day 11], 94 % of control"}, {"measurement": "survivor count", "setting": "[5]", "value": "0 of 3 on day 11"}, {"measurement": "T/C", "setting": "[6]", "value": "-61 and 22 % of control"}, {"measurement": "survivor count", "setting": "[6]", "value": "0 of 3 on day 11"}, {"measurement": "survivor count", "setting": "dose: 16.0 mg/kg/injection, schedule: Q01DX010 (sc), vehicle: saline", "value": "0 of 3 on day 11"}]}
{"smiles": "C[Si](C)(CCl)N[Si](C)(C)CCl", "values": [{"measurement": "T/C", "setting": "[4]", "value": "141 % of control"}, {"measurement": "T/C", "setting": "dose: 600.0 mg/kg/injection, schedule: Q04DX003 (sc), vehicle: saline with Tween-80", "value": "135 % of control"}, {"measurement": "survivor count", "setting": "[2]", "value": "0 of 6 on day 11"}]}
